From PMC12607995
Results are given in words; binding and its absence hold for the method and conditions named. In cells and extracts the contact can be indirect. Some results given as binding are weak or reduced against the parent protein; the word gives no strength.

By UniProt entry, the sequences of proteins in these tests, tags left out. Residues count along the entry.
UniProt Q15109, residues 23-404: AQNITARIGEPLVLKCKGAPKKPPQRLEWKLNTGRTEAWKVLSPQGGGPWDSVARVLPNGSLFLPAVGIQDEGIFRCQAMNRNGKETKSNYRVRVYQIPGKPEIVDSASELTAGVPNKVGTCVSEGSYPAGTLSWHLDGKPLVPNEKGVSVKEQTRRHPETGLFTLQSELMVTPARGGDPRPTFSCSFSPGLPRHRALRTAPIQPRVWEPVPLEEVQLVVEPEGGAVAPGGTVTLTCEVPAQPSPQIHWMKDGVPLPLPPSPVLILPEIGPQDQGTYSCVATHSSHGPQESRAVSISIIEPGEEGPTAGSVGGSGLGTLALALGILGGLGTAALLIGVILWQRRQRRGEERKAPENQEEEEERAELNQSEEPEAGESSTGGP
UniProt Q62151, residues 23-402: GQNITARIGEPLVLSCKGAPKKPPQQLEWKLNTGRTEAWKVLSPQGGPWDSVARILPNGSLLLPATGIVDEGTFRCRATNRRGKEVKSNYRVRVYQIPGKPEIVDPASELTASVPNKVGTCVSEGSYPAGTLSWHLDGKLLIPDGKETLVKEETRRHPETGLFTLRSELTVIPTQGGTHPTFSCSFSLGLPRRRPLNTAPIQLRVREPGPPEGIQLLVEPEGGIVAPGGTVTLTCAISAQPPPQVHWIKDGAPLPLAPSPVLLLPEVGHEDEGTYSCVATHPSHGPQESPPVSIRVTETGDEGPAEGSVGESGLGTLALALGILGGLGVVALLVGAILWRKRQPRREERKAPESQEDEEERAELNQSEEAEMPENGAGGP
UniProt P09429: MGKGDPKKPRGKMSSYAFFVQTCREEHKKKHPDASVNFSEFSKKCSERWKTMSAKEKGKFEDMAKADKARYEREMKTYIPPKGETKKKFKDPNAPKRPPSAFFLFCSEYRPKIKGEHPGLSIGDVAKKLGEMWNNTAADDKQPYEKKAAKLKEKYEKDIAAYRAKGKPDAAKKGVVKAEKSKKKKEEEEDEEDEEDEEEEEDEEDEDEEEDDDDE
UniProt P63158: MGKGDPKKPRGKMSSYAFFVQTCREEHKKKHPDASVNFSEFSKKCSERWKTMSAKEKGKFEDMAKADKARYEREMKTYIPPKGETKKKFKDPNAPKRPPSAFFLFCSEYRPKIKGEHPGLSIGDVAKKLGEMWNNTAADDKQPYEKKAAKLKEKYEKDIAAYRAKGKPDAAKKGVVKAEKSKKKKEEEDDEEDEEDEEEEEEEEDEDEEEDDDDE

How the values were obtained:
[1] = target: Receptor for Advanced Glycation Endproducts (RAGE), endogenous in human HMC3 microglia (human (endogenous in HMC3)) (UniProt Q15109); experiment: proximity ligation; HMC3 human microglia on coverslips, treated as the RAW 264.7 cells (vehicle, LPS, dPGS, LPS + dPGS); Duolink In Situ Red Mouse/Rabbit kit with rabbit anti-human RAGE and mouse anti-human HMGB1 [1F3]
[2] = target: Receptor for Advanced Glycation Endproducts (RAGE), endogenous in RAW 264.7 mouse macrophages (mouse (endogenous in RAW 264.7)) (UniProt Q62151); experiment: proximity ligation; RAW 264.7 macrophages on coverslips, serum-free medium 24 h (vehicle, 100 ng/mL LPS, 50 nM dPGS, or LPS + dPGS), fixed with 4% PFA, permeabilised with 0.1% Triton X-100; Duolink In Situ Orange Goat/Rabbit kit with goat anti-human RAGE and rabbit anti-human HMGB1

Substance: High Mobility Group Box 1 (HMGB1), endogenous in human HMC3 microglia (from UniProt P09429 1-215)
- binding [1]: binds

Substance: High Mobility Group Box 1 (HMGB1), endogenous in RAW 264.7 mouse macrophages (from UniProt P63158 1-215)
- binding [2]: binds
